Paper PMC2291563, “SAM Domain-Based Protein Oligomerization Observed by Live-Cell Fluorescence Fluctuation Spectroscopy” (PLoS ONE, 2008)
Positions count from the first letter of the chain named. Numbers in names are those of the source. These are yes or no findings as the source states them, for the method shown. Some results given as binding are weak or reduced against the parent protein; the word gives no strength. For part of these data: Sequences can lack the tags named with a protein.

Experiments:
[1] = target: Ste50-mCherry (budding yeast (S288C background)) (UniProt P25344); assay: two-dimensional photon counting histogram (2dPCH); live yeast cells with Ste11-GFP and Ste50-mCherry, cytosolic pool; 50 µs bins; two-component fit; cycling cells, also after α-factor or NaCl
[2] = target: Ste50^L73A-L75A-mCherry (budding yeast (S288C background)) (UniProt P25344); assay: two-dimensional photon counting histogram (2dPCH); live ste50Δ yeast cells with Ste11-GFP and Ste50^L73A-L75A-mCherry as the only Ste50, cytosolic pool; 50 µs bins; two-species fit
[3] = target: Ste50^L73A-L75A-GFP (budding yeast (S288C background)) (UniProt P25344); assay: photon counting histogram (1dPCH); live yeast cells, cytosolic pool; 488 nm, 50 µs bins; average brightness compared with GFP, GFP-GFP and GFP-GFP-GFP controls; cycling cells, also after α-factor or NaCl

B1: Ste50-GFP (natural protein, budding yeast (S288C background), UniProt P25344 1-346, looked up)
chain: MEDGKQAINEGSNDASPDLDVNGTILMNNEDFSQWSVDDVITWCISTLEVEETDPLCQRLRENDIVGDLLPELCLQDCQDLCDGDLNKAIKFKILINKMRDSKLEWKDDKTQEDMITVLKNLYTTTSAKLQEFQSQYTRLRMDVLDVMKTSSSSSPINTHGVSTTVPSSNNTIIPSSDGVSLSQTDYFDTVHNRQSPSRRESPVTVFRQPSLSHSKSLHKDSKNKVPQISTNQSHPSAVSTANTPGPSPNEALKQLRASKEDSCERILKNAMKRHNLADQDWRQYVLVICYGDQERLLELNEKPVIIFKNLKQQGLHPAIMLRRRGDFEEVAMMNGSDNVTPGGRL
notes: Ste50, SAM domain protein, budding yeast; tagged at the chromosomal locus; source: expressed from its chromosomal locus in live yeast cells (S288C background); not shown: GFP, C-terminal, kept
For B1, the binding [1] was “binds”.

B2: Ste50^L73A-L75A-mCherry (protein, UniProt P25344 1-346)
chain: B1 chain with L73A, L75A
With B2 the binding [2] was “no binding”.

B3: Ste50^L73A-L75A-GFP (protein, UniProt P25344 1-346)
chain: B1 chain with L73A, L75A
B3 was tested, and the binding [3] was “no binding”.
